# Patent US20150045610A1, “METHOD OF MODIFYING SPERMATOGENESIS, SPERMIOGENESIS AND/OR FERTILITY IN MAMMALS” (Monell Chemical Senses Center, priority 2012, published 2015)
# By UniProt entry, the sequences of proteins in these tests, tags left out. Where a name states a change or a piece, a line headed by the entry shows the natural chain unless it says otherwise.
# UniProt Q7RTX0: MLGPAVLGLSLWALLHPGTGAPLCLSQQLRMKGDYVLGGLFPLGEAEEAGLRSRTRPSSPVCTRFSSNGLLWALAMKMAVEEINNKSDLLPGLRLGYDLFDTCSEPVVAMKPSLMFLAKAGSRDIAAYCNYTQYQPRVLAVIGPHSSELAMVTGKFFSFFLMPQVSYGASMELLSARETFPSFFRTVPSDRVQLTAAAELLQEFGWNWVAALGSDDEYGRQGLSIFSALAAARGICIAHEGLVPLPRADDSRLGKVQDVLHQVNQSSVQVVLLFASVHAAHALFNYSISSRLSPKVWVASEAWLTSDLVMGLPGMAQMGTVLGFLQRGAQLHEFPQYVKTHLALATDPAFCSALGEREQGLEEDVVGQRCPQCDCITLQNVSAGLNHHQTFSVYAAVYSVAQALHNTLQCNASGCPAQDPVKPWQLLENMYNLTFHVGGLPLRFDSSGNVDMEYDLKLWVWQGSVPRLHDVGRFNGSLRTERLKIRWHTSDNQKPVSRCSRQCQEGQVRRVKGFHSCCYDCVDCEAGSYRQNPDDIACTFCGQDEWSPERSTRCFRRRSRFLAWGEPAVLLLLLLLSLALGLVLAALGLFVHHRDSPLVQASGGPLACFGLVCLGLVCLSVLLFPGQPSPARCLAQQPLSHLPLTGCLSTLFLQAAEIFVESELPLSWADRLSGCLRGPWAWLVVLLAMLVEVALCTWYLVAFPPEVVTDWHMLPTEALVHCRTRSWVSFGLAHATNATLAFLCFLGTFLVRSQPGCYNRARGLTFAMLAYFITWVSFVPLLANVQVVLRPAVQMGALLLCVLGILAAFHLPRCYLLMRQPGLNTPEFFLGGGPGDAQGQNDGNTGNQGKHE
# “Also recorded” adds a separate entry of the source. At least one compound was matched to its structure with a doubt left.
# Molecular target: T1, humanized mhT1R3 (Homo sapiens, UniProt Q7RTX0, A109T/A120V/A176D/A197V/A198V/A228S/A231N/A248T/A280V/A282S/A302S/A412V/A417V/A46T/A537T/C375D/D124S/D249S/D250G/D364H/D419E/D470T/D491G/D88A/DEL352-352/DEL488-489/E172D/E199T/E203N/E217D/E356N/E45S/E481Q/E505D/E525K/E545Q/F540P/F555L/G168S/G205S/G311T/G314N/G355L/G360D/G414H/G438R/G439D/G463S/G50T/G542N/H261R/H278R/H281Y/H332P/I485M/I536F/INS376MLQNLSSG/K32Q/K339E/K422L/K494V/K86G/L173R/L245Q/L272V/L29F/L354S/L385Q/L433M/L458M/L483S/L71F/L74M/M151L/M315I/M318V/M31A/N285S/N386L/N532H/N68L/P112S/P246H/P335S/P416H/P420H/P441T/P60I/Q221E/Q257L/Q317R/Q330L/Q336H/Q359L/Q372R/Q418S/Q504K/Q531K/R123Q/R247D/R252Q/R291G/R30K/R357A/R443Q/R467V/R473T/R479Q/R482Q/R486Y/R498Q/R52N/R550K/R553A/R556P/R560K/R56Q/S251Q/S267K/S289H/S290H/S392A/S446A/S447E/S464P/S477T/S490P/S53Q/S559P/S58N/S67P/T195Q/T346A/T377L/T390I/T434S/T480L/T63N/V152I/V277A/V366M/V36I/V381L/V393T/V437A/V465T/V61P/W72L)
# T1 construct: the extracellular domain is of mouse origin and the transmembrane and intracellular domains of human origin; mouse T1R3 extracellular domain (fusion partner replacing the human extracellular domain); expressed in transfected cells; host or cells: transgenic Line 7c mice (T1R3-/-, Gus-/-, mhT1R3+/-)
# T1 sequence (Q7RTX0 with tags, fused parts or gaps L29F/R30K/M31A/K32Q/V36I/E45S/A46T/G50T/R52N/S53Q/R56Q/S58N/P60I/V61P/T63N/S67P/N68L/L71F/W72L/L74M/K86G/D88A/A109T/P112S/A120V/R123Q/D124S/M151L/V152I/G168S/E172D/L173R/A176D/T195Q/A197V/A198V/E199T/E203N/G205S/E217D/Q221E/A228S/A231N/L245Q/P246H/R247D/A248T/D249S/D250G/S251Q/R252Q/Q257L/H261R/S267K/L272V/V277A/H278R/A280V/H281Y/A282S/N285S/S289H/S290H/R291G/A302S/G311T/G314N/M315I/Q317R/M318V/Q330L/H332P/P335S/Q336H/K339E/T346A/DEL352-352/L354S/G355L/E356N/R357A/Q359L/G360D/D364H/V366M/Q372R/C375D/INS376MLQNLSSG/T377L/V381L/L385Q/N386L/T390I/S392A/V393T/A412V/G414H/P416H/A417V/Q418S/D419E/P420H/K422L/L433M/T434S/V437A/G438R/G439D/P441T/R443Q/S446A/S447E/L458M/G463S/S464P/V465T/R467V/D470T/R473T/S477T/R479Q/T480L/E481Q/R482Q/L483S/I485M/R486Y/DEL488-489/S490P/D491G/K494V/R498Q/Q504K/E505D/E525K/Q531K/N532H/I536F/A537T/F540P/G542N/E545Q/R550K/R553A/F555L/R556P/S559P/R560K limits assumed): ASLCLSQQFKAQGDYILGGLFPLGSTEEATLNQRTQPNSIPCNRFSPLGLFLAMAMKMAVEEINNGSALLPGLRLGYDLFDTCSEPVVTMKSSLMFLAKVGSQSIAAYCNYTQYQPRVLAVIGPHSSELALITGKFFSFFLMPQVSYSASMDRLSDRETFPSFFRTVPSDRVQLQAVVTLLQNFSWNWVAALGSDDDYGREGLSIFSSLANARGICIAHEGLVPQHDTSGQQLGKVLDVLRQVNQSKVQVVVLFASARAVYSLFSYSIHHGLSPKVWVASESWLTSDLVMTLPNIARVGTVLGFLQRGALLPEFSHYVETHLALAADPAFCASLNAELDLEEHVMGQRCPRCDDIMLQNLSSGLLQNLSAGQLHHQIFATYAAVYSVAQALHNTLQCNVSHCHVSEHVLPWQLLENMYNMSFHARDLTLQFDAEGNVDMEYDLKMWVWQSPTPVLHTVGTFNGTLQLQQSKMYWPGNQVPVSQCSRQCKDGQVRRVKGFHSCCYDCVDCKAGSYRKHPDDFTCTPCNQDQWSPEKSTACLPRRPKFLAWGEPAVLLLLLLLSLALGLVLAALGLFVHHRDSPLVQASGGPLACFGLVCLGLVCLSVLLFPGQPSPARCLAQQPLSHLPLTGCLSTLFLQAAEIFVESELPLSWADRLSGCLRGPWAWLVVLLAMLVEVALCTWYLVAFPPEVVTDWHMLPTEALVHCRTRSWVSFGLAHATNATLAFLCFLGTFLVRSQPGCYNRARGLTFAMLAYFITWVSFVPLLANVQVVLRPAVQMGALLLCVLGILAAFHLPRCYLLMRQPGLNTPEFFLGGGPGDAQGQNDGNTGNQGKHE
# Experiment: T1R3 pharmacological block with clofibrate diet (male reproduction)
# Format: in vivo, mouse
# Details: line 7c males on clofibrate diet, 1 or 2 months
# Method: Matched groups (six males each) of WT and line 7c mice (expressing the chimerical mhT1R3 transgene on a T1R3/α-gustducin double-null background), 3-6 months old, were fed the indicated diets for 4-6 weeks. Each genotype was tested in two groups, one on the regular diet and one on a test diet with clofibrate. An additional group of males stayed on the test diet for another 4-6 weeks, during which time they were mated with WT females to determine whether the pharmacological intervention was effective. Then the animals were allowed to recover on the regular diet for an additional 4 weeks after the end of the treatment (half-time for total sperm turnover in mice), and again were tested for their reproductive capacity, and then their tissues were analyzed. The diets were normal chow and normal chow with clofibrate (250 and 500 mg/kg body weight daily). […] As additional controls we treated T1R3-null mice, α-gustducin-null mice, and mice expressing the humanized mhT1R3 receptor on a WT α-gustducin background with clofibrate. […] Therefore, we tested these animals only for the 4 weeks without the recovery period.
# For histological analyses of testicular structure in these mutant animals we used Bouin's or Davidson's fixatives and paraffin sections with H&E and PAS staining for fine tissue structure analysis and where possible for immunohistochemistry (see FIGS. 2 and 3). We used appropriate antibodies to determine the cell types (e.g., Tamoo et a; 2-2. Jostpcje, Ce;; bop;. 118(5):409-14). Measurement/staining of apoptotic cells was done with commercially available kits, such as TdT TUNEL enzyme (Roche). […] Histological, immunological and cellular analyses, and genetic determination of gene transmission, were also conducted using conventional techniques.
# We observed spermatozoa after clofibrate treatment represent cells that were able to escape the inhibition of clofibric acid, most likely due to very fast clearance and fluctuating levels in rodents. This allows some tubular cells to complete the developmental cycle. Therefore, we measured sperm concentration as an indicator of efficiency of the pharmacological block and to be able to determine the concentration that results in effective sterility. We analyzed testicular morphology, sperm production, sperm motility and sperm function in in vitro fertilization after feeding these animals with the lipid lowering drug clofibrate. We tested an acute inhibition of sperm motility and function in vitro by incubating sperm from the engineered mice (mGus−/−, mT1R3−/−, hmT1R3+) in solutions containing clofibric acid or other T1R3 inhibitors. The concentration used was similar to the one used in human treatment with fibrates (˜0.03 g/kg weight, for 3 weeks). We tested sperm motility and function in vitro of the Gα-gustducin KO mice (missing only the Gα-gustducin gene (mGus−/−)) after blocking T1R3 receptors with the rodent specific inhibitor gurmarin (3 mg/ml).
# We placed line 7c and WT males on a diet with clofibrate (300 mg/kg body weight), or a normal diet (no clofibrate), for 1 or 2 months. In the second month the males were housed with two young WT females to determine whether the males were fertile. The line 7c males on a regular diet were fertile. […] After 1 or 2 months of clofibrate treatment, the line 7c males had substantially less sperm (i.e., about one-quarter that of the WT males), whereas line 7c males on regular feed had the same amount of sperm as WT males.
compound,measurement,value
CCOC(=O)C(C)(C)Oc1ccc(Cl)cc1 [clofibrate],sperm produced relative to WT males,about ¼; also recorded: about one-quarter; also recorded: oligospermia
